# Laboratory results as given in PubChem BioAssay AID504648 (National Center for Advancing Translational Sciences (NCATS), 2011).
# About 610 (0.16%) of roughly 390,000 compounds were called active. Inconclusive results, whose numbers are uncertain, are shown with a selection of clear calls. The call rests on the fitted dose curve; in most records, active means well fitted inhibition curve with a large enough effect; inconclusive means small, poorly fitted or top-dose-only effect, or effect the other way, or another doubt; inactive means no such curve, though single readings can be large or run the other way. Potencies beside an inconclusive call are fits to weak or partial responses and may not hold up.
# Experiment: Nrf2 qHTS screen for inhibitors: counterscreen for cytotoxicity
# Conditions: A549 ARE-Fluc cells, CellTiter-Fluor viability, 18-24 h; activity change, negative = cytotoxicity: at 46 µM (top of the series)
# Summary of the method: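 A549 ARE-Fluc cells in 5% FBS OPTI-MEM, 5000 cells/well, rested 2 h then exposed to compounds in concentration-response for 18-24 h at 37 °C. Viability by CellTiter-Fluor fluorescence (Ex 405/Em 525) after 30 min; luciferase luminescence (BugLite, 15 min, RT) read afterwards.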
# On the % scale 0 is the no-effect control and ±100 the full control effect; potency means the concentration at half of the fitted maximal effect.
SMILES,"activity change, negative = cytotoxicity",Potency
COc1cc(NC(=O)C(c2ccccc2)c2ccccc2)c(C(=O)O)cc1OC,inactive: -5.44%,–
COc1ccc(C(CNC(=O)c2cccc(S(=O)(=O)Nc3ccccc3OC)c2)N2CCCCC2)cc1 (stereo unspecified),–,"inconclusive: 16.4 µM [falling, partial curve, poor fit]"
CC(C)(C)OC(=O)c1c(N)n(CCCN2CCCC2=O)c2nc3ccccc3nc12,–,"inconclusive: 29.1 µM [activator, single point]"
CCN(CC)S(=O)(=O)c1ccc(N/N=C(\C)c2cccnc2)nc1,–,"inconclusive: 11.6 µM [falling, partial curve, poor fit]"
CCCCC(O)(CCN1CCOCC1)c1ccc(Cl)cc1 (stereo unspecified),–,"inconclusive: 29.1 µM [activator, partial curve, poor fit]"
CCCn1nc(-c2ccccc2)c2nc3ccccc3nc21,–,"inconclusive: 3.66 µM [activator, partial curve, poor fit]"
Nc1[nH][nH]c(=O)c1N=Nc1ccc2c(c1)OCO2,–,"inconclusive: 18.4 µM [falling, partial curve]"
O=C1Nc2cc(C(=O)NCCN3CCCCCC3)ccc2S/C1=C\c1ccccc1,inactive: -1.64%,–
COc1cc2c(cc1NC(=O)C(Cl)Cl)-c1ccc(NC(=O)C(Cl)Cl)cc1C2,–,"inconclusive: 23.1 µM [falling, single point]"
CCOc1nc(N=C(N)N)nc2c(C)cccc12,inactive: -7.52%,–
N#CC1=C(N)n2c(s/c(=C\c3ccco3)c2=O)=C(C#N)C1c1ccco1 (stereo unspecified),–,"inconclusive: 11.6 µM [falling, partial curve, poor fit]"
COc1ccc(Cc2nnc(SC)[nH]c2=O)cc1,–,"inconclusive: 32.6 µM [activator, partial curve, poor fit]"
C=CC[C@@H](CC(=O)N[C@H](CO)Cc1ccccc1)C(=O)N[C@H](COC(=O)[C@@H](CC=C)CC(=O)OC(C)(C)C)Cc1c[nH]c2ccccc12,–,active: 11.6 µM
CCN(c1ccccc1)S(=O)(=O)c1ccc(C(=O)Nc2nnc(CSC)o2)cc1,–,"inconclusive: 20.6 µM [falling, single point]"
CC(C)CNS(=O)(=O)c1ccc(CCC(=O)N2CCN(c3ccc(F)cc3)CC2)cc1,inactive: -0.932%,–
CSc1ccccc1C(=O)Nc1ccccc1C(=O)N1CCCC1,–,"inconclusive: 29.1 µM [activator, partial curve, poor fit]"
Cc1cc(C)cc(N=c2c([N+](=O)[O-])nn(-c3ccc(Cl)cc3)n2O)c1,–,"inconclusive: 0.259 µM [falling, partial curve, poor fit]"
COc1ccc(-n2ncc(Cl)c(Cl)c2=O)cc1,–,"inconclusive: 29.1 µM [falling, single point]"
Nc1nonc1-c1nc2ccccc2n1CC(=O)N1CCCCC1,inactive: -12.3%,–
Cc1cc(C(=O)Nc2cccc(C(F)(F)F)c2)c2c(C)nn(-c3cccc(F)c3)c2n1,–,"inconclusive: 20.6 µM [falling, single point]"
O=C(NCCCN1CCN(c2ccccc2F)CC1)c1ccc2nc(Cc3ccccc3)oc2c1,–,"inconclusive: 29.1 µM [falling, single point]"

SMILES,"activity change, negative = cytotoxicity",Potency
CC1CCN(c2ccc([N+](=O)[O-])cc2C(=O)N2CCOCC2)CC1,–,"inconclusive: 20.6 µM [falling, single point]"
O=C(CCc1ccccc1)NC(NC(=S)Nc1ccc(Br)cc1)C(Cl)(Cl)Cl (stereo unspecified),–,"inconclusive: 29.1 µM [falling, single point]"
OC(COc1c(F)cc(Br)cc1F)CN1CCc2ccccc2C1 (stereo unspecified),–,"inconclusive: 16.4 µM [activator, partial curve, poor fit]"
COc1ccc2cc1Oc1ccc(cc1)C[C@H]1c3c(cc4c(c3Oc3cc5c(cc3OC)CCN(C)[C@@H]5C2)OCO4)CCN1C,–,"inconclusive: 16.4 µM [falling, single point]"
CC(=O)c1c(C)[nH]c(C(=O)CSc2nnc(-c3ccco3)n2Cc2ccccc2)c1C,inactive: -11.4%,–
CS(=O)(=O)N1CCN(c2ccc([N+](=O)[O-])c(N3CCOCC3)c2)CC1,–,"inconclusive: 32.6 µM [falling, single point]"
CN=c1scc(-c2cc(OC)ccc2OC)n1/N=C/c1c(C)[nH]c2ccccc12,–,"inconclusive: 20.6 µM [falling, single point]"
CCN(CC)S(=O)(=O)c1ccc2c(c1)c(=O)c(C(=O)N1CCN(c3ccc(OC)cc3)CC1)cn2C,–,"inconclusive: 5.8 µM [activator, full curve, poor fit]"
COc1cccc(-c2nn(-c3ccccc3)cc2C(=O)OCC(=O)Nc2ncc(Cl)cc2Cl)c1,inactive: -0.518%,–
COc1ccc(NC(=O)Nc2ccc3c(c2)C(=O)N([C@H](C)CO)C[C@H](C)[C@@H](CN(C)S(=O)(=O)c2ccc(OC)cc2)O3)cc1,inactive: -3.59%,–
COc1ccccc1C=CC(=O)C=Cc1ccccc1OC,–,"inconclusive: 29.1 µM [falling, single point]"
CC1(C)CC(=O)C2=C(C1)N(CCN1CCOCC1)C1=C(C(=O)CC(C)(C)C1)C2c1ccc(Cl)c([N+](=O)[O-])c1,–,"inconclusive: 5.17 µM [falling, partial curve, poor fit]"
CCCC[n+]1ccn(C2=C([O-])c3ccccc3C(=O)/C2=N\S(=O)(=O)c2ccccc2)c1,–,"inconclusive: 20 µM [falling, single point]"
Cc1ccccc1NC(=O)Cc1cn(C)c2ccccc12,–,"inconclusive: 8.2 µM [activator, single point]"
Cc1c(P(=S)(c2ccccc2)c2ccccc2)c2ccccc2n1CCCc1ccccc1,inactive: 4.31%,–
O=C(C1CCC(Cn2c(=S)[nH]c3ccccc3c2=O)CC1)N1CCN(c2ccccn2)CC1 (stereo unspecified),–,"inconclusive: 29.1 µM [falling, single point]"
CCOC(=O)c1ccc(N2C(=O)c3n[nH]c(-c4ccco4)c3C2c2cccc([N+](=O)[O-])c2)cc1 (stereo unspecified),–,"inconclusive: 18.4 µM [falling, partial curve, poor fit]"
O=C1c2ccccc2C(=O)N1CSc1nnc2c3ccccc3n(CCc3ccccc3)c2n1,–,"inconclusive: 2.59 µM [activator, partial curve, poor fit]"
O=C(c1cncc(Br)c1)N1CCN(S(=O)(=O)c2ccc3ccccc3c2)CC1,inactive: 0.643%,–
CC1=C(C(=O)Nc2ccccc2C)C(c2sccc2C)n2ncnc2N1 (stereo unspecified),inactive: 14.2%,–
Cc1cc(C)c(Cn2cnc(-c3ccc([N+](=O)[O-])cc3)c2)c(C)c1,–,"inconclusive: 18.4 µM [falling, partial curve, poor fit]"

# Entries of single compounds as entered above. Order of values: activity change, negative = cytotoxicity	Potency
# OC(COc1c(F)cc(Br)cc1F)CN1CCc2ccccc2C1 (stereo unspecified) in the list: –	inconclusive: 16.4 µM [activator, partial curve, poor fit]
# CC1CCN(c2ccc([N+](=O)[O-])cc2C(=O)N2CCOCC2)CC1 in the list: –	inconclusive: 20.6 µM [falling, single point]
# COc1ccc2cc1Oc1ccc(cc1)C[C@H]1c3c(cc4c(c3Oc3cc5c(cc3OC)CCN(C)[C@@H]5C2)OCO4)CCN1C in the list: –	inconclusive: 16.4 µM [falling, single point]

# (next part)

SMILES,"activity change, negative = cytotoxicity",Potency
CC1=C/C(=C(/c2ccc(O)c(C)c2)c2ccccc2S(=O)(=O)O)C=CC1=O,–,"inconclusive: 14.6 µM [falling, partial curve]"
CCN(CC)C(=O)c1oc2ccc(S(=O)(=O)N3CCCCCC3)cc2c1C,inactive: -4.93%,–
COC(=O)C(C)Sc1ccc2nnc(-c3ccccc3)n2n1 (stereo unspecified),–,"inconclusive: 2.31 µM [activator, full curve, poor fit]"
COc1ccc2nc(NC(=O)CN(c3ccc(C)cc3)S(=O)(=O)c3c(C)nn(C)c3C)sc2c1,–,"inconclusive: 29.1 µM [falling, single point]"
O=C(CN1CCN(C(C(=O)Nc2cc(C(F)(F)F)ccc2Cl)c2ccccc2)CC1)NC1CC1 (stereo unspecified),–,"inconclusive: 18.4 µM [falling, single point]"
Cc1cc(C(=O)CCl)c(C)n1-c1c(C)n(C)n(-c2ccccc2)c1=O,–,"inconclusive: 25.9 µM [falling, partial curve, poor fit]"
Cc1ccc(C(=O)NC2CC3CCC(C2)N3Cc2ccco2)cc1 (stereo unspecified),–,"inconclusive: 10.3 µM [activator, single point]"
CC(C)C1Cc2c(sc3[nH]c(=S)n(Cc4ccccc4)c(=O)c23)CO1 (stereo unspecified),–,"inconclusive: 23.1 µM [falling, single point]"
COc1ccc(N2CCN(Cc3nc4c(c(=O)n(C)c(=O)n4C)n3C(C)C)CC2)cc1,inactive: -0.511%,–
Nc1ccc2nc3c(=O)n(C4CCCCC4)c(=O)[nH]c3nc2c1,inactive: 3.08%,–
COc1ccc(CNc2nc(-c3ccc(Cl)cc3)cc(C(F)(F)F)n2)cc1,–,"inconclusive: 6.51 µM [activator, partial curve, poor fit]"
CC(C)c1nc(SCC(=O)Nc2ccc(C(=O)O)cc2)c2c3c(sc2n1)CCCC3,–,"inconclusive: 18.4 µM [falling, partial curve, poor fit]"
C[C@@H](CN1C2=NC[C@H](Cc3ccc(O)cc3)N2C[C@H]1Cc1ccc(O)cc1)NC(=O)CCC1CCCCC1,inactive: 2.59%,–
Cc1ccc(-c2csc3ncnc(Sc4nnc(CN5CCCCCC5=O)o4)c23)cc1,–,"inconclusive: 23.1 µM [falling, single point]"
O=C(/C=C/NNC(=O)c1ccc(Br)cc1)c1ccccc1,–,"inconclusive: 32.6 µM [falling, partial curve, poor fit]"
O=[N+]([O-])c1ccc(NC2CCN(Cc3ccccc3)CC2)c([N+](=O)[O-])c1,–,"inconclusive: 29.1 µM [falling, single point]"
Cc1ccc2occ(CC(=O)N(Cc3ccc(Cl)cc3)Cc3ccco3)c2c1,–,"inconclusive: 29.1 µM [falling, single point]"
COc1ccc(CCNc2ccc(C(CC(N)=O)NC(=O)c3cc(OC)ccc3OC)cc2[N+](=O)[O-])cc1 (stereo unspecified),–,"inconclusive: 32.6 µM [falling, partial curve, poor fit]"
COc1cc(C2CC(=O)Nc3ccc4ccccc4c32)ccc1OC(=O)C(C)C (stereo unspecified),inactive: -5.91%,–
